Measured values reported in PMC12689330.
No constants are given. Whether binding was seen depends on the method and setting. Some results given as binding are weak or reduced against the parent protein; the word gives no strength.

Amino acid sequences for entries named in this document (tags omitted). Residues count along the entry.
UniProt P20333, residues 23-461: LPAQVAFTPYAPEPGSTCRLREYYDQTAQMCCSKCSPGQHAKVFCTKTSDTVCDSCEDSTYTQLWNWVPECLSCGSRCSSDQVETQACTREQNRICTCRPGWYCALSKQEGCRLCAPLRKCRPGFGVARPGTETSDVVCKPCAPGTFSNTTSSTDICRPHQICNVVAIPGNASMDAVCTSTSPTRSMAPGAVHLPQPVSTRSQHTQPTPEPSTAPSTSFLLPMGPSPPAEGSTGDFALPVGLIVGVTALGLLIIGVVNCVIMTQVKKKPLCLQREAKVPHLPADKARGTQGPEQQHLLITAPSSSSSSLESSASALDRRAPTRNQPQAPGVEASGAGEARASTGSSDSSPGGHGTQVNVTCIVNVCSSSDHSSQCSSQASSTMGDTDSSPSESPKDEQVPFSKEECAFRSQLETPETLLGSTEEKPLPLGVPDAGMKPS

Molecular target: TNFR2 (UniProt P20333)
Test: flow cytometry on cells; TNFR2-overexpressing Jurkat cells (JK-R2) treated with biotin-UMR2-705, detected with APC-conjugated streptavidin; control Jurkat-NC cells alongside; only the binder purified

binding: binds
B1: biotin-UMR2-705 (peptide)
peptide: DLLISIY
modifications: biotin (position not given)
